According to patent US20240115488A1, “COMPOSITION FOR ORAL CAVITY CARE” (ICHIMARU PHARCOS CO., LTD., priority 2021, published 2024):

Tested on: oral bacteria culture medium
Assay: Confirmation of halitosis suppression effect: measurement of VSC concentration with halimeter (Test Example 3)
Assay type: cell-based, human
Conditions: 0.05% CPC
Description: Using Vivaspin 20 (manufactured by Sartorius) of a fractionated molecular weight of 5 k, ML with 5000 or more was prepared.
Three fractions including ML with 5000 or more and less than 30000, ML with 30000 or more and less than 50000, and ML with 50000 or more were obtained.
A predetermined CPC solution was prepared as follows. 0.2 g of CPC was dissolved in 10 mL of ethanol solution to prepare a stock solution (2% CPC). This stock solution was diluted 20-fold with purified water to prepare a 0.1% CPC (5% ethanol) solution. This solution was further diluted with a 5% ethanol solution to prepare 0.05% CPC (5% ethanol), 0.025% CPC (5% ethanol), and 0.0125% CPC (5% ethanol).
Saliva (approximately 2 mL) of a healthy human in his 30 s was collected by a predetermined method. The collected saliva was centrifuged (2000×g, 10 minutes, 25° C. (room temperature)). After the centrifugation, the supernatant was collected. The supernatant was added to 30 mL of Todd Hewitt Broth (Becton, Dickinson and Company, 249240), and cultured at 37° C. for 16 hours. The turbidity (OD660 nm) of the culture medium after the culture was measured, and the culture medium was diluted with PBS to have a turbidity of 0.125. The diluted liquid (oral bacteria culture medium) was used in a test.
Halitosis is defined as “malodor that exceeds a socially acceptable limit among gases that come out of the mouth or the nose”. Most (80% or more) of the halitosis is considered to be from gas in the oral cavity, and main causative substances thereof are considered to be hydrogen sulfide (H2S), methyl mercaptan (CH3SH), and dimethyl sulfide [(CH3)2S], which are volatile sulfur compounds (VSCs) (Cause and fact of halitosis, e-healthnet, Ministry of Health, Labour and Welfare, URL: https://www.e-healthnet.mhlw.go.jp/information/teeth/h-07-001.html). […]
After the standing, the VSC concentration in each group was measured three times with a halimeter (RH17K, TAIYO), and an average value thereof was calculated. The average value of the results (numerical values) obtained was calculated.

## CCCCCCCCCCCCCCCC[n+]1ccccc1 [CPC, cetylpyridinium chloride]
Test 3-1, 3-1 Control group = 100
  VSC concentration, calculation result (relative value): 59.1
Test 3-2, 3-2 Control group = 100
  VSC concentration, calculation result (relative value): 59.1
Test 3-3, 3-3 Control group = 100
  VSC concentration, calculation result (relative value): 91
